This data set in a line: Permeability of the compound in pH 7.4 PBS buffer incubated for 18 hrs by PAMPA-BBB assay. In general terms: The PAMPA barrier holds no transporters, so it reflects passive diffusion.

SMILES strings stand for the structures.

Consider `COc1cc2c(cc1OC)C(=O)C(CC1CCN(Cc3ccccc3)CC1)C2` (stereo unspecified) [DONEPEZIL], for which the Papp – broadly, a coefficient for how fast a substance crosses the barrier – at 18 h was found to be 8.32 ×10⁻⁶ cm/s.

Values taken from ChEMBL document CHEMBL4406832, “Discovery of novel series of 2-substituted benzo[d]oxazol-5-amine derivatives as multi-target directed ligands for the treatment of Alzheimer's disease” (Eur J Med Chem, 2019).
